According to PubChem BioAssay AID2685 (National Center for Advancing Translational Sciences (NCATS), 2010):
The list shows a part of the results. Shown are side measurements of this screen, not its main read-out; they come without a call. Most of these compounds were active or inconclusive in the main read-out, so they are no random draw. Words in brackets tell the shape of the fitted curve; partial curves, single points and poor fits give uncertain potencies.

Assay: qHTS Assay for Lipid Storage Modulators in Drosophila S3 Cells;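 on cell number change: cells counted by Cell Tracker Red CMTPX staining in the red channel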
Conditions: BODIPY lipid droplet fluorescence, 18-24 h; for cell number change: measured here: cell count max response, cells fed with added oleic acid
Procedure, shortened: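 Drosophila S3 cells got compounds at several concentrations plus oleic acid (400 uM solution). Laser-scanning cytometry with 488 nm excitation read lipid droplets at 500-530 nm and cells at 575-640 nm. Percent activity was relative to 20 uM Triacsin C.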

[1] = measured here: lipid fluorescence (Fed channel) AC50, cells fed with added oleic acid
[2] = measured here: cell number channel AC50, cells fed with added oleic acid

Compound | cell number change [%] | AC50 [1] | AC50 [2]
CC(C(=O)O)c1ccc2c(c1)[nH]c1ccc(Cl)cc12 (stereo not drawn) | 20.7 | 14.6 µM [rising, partial curve] | –
O=C(CN1C(=O)c2ccccc2C1=O)N1CCN(C(=O)c2ccco2)CC1 | -2.21 | – | –
CN(C)CCNC(=O)C(=O)Nc1ccc2c(c1)N(S(=O)(=O)c1cccs1)CCC2 | 15.4 | – | –
Cc1cc(NC(=O)c2cccc(COc3ccc(Br)cc3)c2)no1 | -0.112 | – | –
O=C(/C=C/c1ccncc1)c1ccc(NC(=O)c2ccccc2F)cc1 | -50.5 | 2.91 µM [rising, single point] | 29.1 µM [falling, single point]
O=C(COC(=O)Cc1ccccc1F)NCCc1ccccc1 | 14.3 | 2.31 µM [rising, partial curve] | –
CC(=O)Nc1nc2ccccc2n1CCOc1ccccc1Cl | – | 0.411 µM [rising, partial curve, poor fit] | 0.461 µM [rising, partial curve, poor fit]
Fc1cccc(NCCc2c[nH]c3ccccc23)n1 | -37.4 | 29.1 µM [falling, single point] | 7.31 µM [falling, partial curve]
O=C(C(NS(=O)(=O)c1cccs1)c1ccccc1)N1CCN(c2ccccc2F)CC1 (stereo not drawn) | 21.2 | 0.146 µM [rising, full curve] | –
Cc1ccc(C)c(Cn2nnc(C(=O)Nc3ccc4c(c3)OCCO4)c2N)c1 | -8.12 | 18.4 µM [falling, partial curve] | –
COc1ccc(C(=O)NC2CCCc3c2cnn3-c2ccccc2F)cc1OC (stereo not drawn) | – | 3.26 µM [falling, partial curve] | 2.06 µM [falling, partial curve]
O=S(=O)(NCC1CCCO1)c1ccccc1 (stereo not drawn) | 9.26 | 29.1 µM [rising, single point] | –
COc1ccc(Cl)cc1NC(=O)CN(C)C(=O)CSc1ccc2c(c1)OCCO2 | -34.9 | 0.651 µM [falling, full curve, poor fit] | 16.4 µM [falling, partial curve]
COCCn1c(SCC(=O)NNC(=O)Cc2ccccc2)nc2ccccc2c1=O | 1.34 | – | 0.231 µM [rising, partial curve, poor fit]
O=C(O)c1ccc(NS(=O)(=O)c2ccc(Cl)cc2)cc1 | -21.1 | – | 1.03 µM [falling, full curve, poor fit]
CCC(C)C(=O)Nc1nnc(SCC(=O)Nc2ccccc2F)s1 (stereo not drawn) | – | – | 3.26 µM [rising, single point]
O=C(COc1ccc(Br)cc1Cl)NC1CCN(Cc2ccccc2)CC1 | – | 29.1 µM [rising, single point] | –
CNC(=O)c1c(NC(=O)C2=COCCO2)sc2c1CCC(C)C2 (stereo not drawn) | -9.83 | 29.1 µM [falling, single point] | –
O=C(NCCC1CCCCN1S(=O)(=O)c1ccccc1)C(=O)NCc1ccc(F)cc1 (stereo not drawn) | -9.42 | 29.1 µM [falling, single point] | –
CC(C)NC(=O)NC(=O)COC(=O)c1ccc(S(=O)(=O)Nc2ccccc2)cc1 | -44.9 | 1.46 µM [falling, full curve] | 0.92 µM [falling, full curve, poor fit]
Cc1cccc(C(=O)N2CCN(Cc3nc4sc5c(c4c(=O)[nH]3)CCCC5)CC2)c1 | 21.8 | 0.116 µM [rising, single point] | –

Compound | cell number change [%] | AC50 [1] | AC50 [2]
CCn1c2ccccc2c2cc(C3C(C#N)=C(C)NC(C)=C3C#N)ccc21 | -17 | 1.03 µM [rising, partial curve] | –
CCOCCCNCc1cccc(OC)c1 | 6.34 | 0.00517 µM [falling, full curve, poor fit] | –
CC(NC(=O)NCCCC(=O)O)(C(F)(F)F)C(F)(F)F | – | 6.51 µM [falling, single point] | –
CC(C)NC(=O)c1ccccc1NC(=O)CN(c1ccc2c(c1)OCO2)S(C)(=O)=O | – | 0.58 µM [rising, single point] | –
CC(=O)c1cn(CC(=O)Nc2ccccc2C)c2ccccc12 | -7.47 | 29.1 µM [falling, single point] | –
Cc1ccc(CNC(=O)C2CC(=O)N(c3ccc(OCC(=O)N4CCCC4)cc3)C2)cc1 (stereo not drawn) | -24.5 | 29.1 µM [falling, single point] | –
COc1ccccc1-c1noc2ncnc(Nc3cccc(C)c3)c12 | 7.78 | 0.116 µM [rising, full curve, poor fit] | 0.164 µM [rising, full curve, poor fit]
O=C1CCC(C(=O)Nc2cccc(S(=O)(=O)N3CCOCC3)c2)N1 (stereo not drawn) | 24.3 | 0.58 µM [falling, single point] | –
Cc1c(NC(=O)c2c(N)sc3c2CCCC3)c(=O)n(-c2ccccc2)n1C | -5.12 | 3.26 µM [falling, single point] | 6.51 µM [falling, partial curve, poor fit]
CC(C)N(C(=O)CSc1nnc(NC(=O)Cc2cccs2)s1)C(C)C | -101 | 29.1 µM [falling, single point] | –
Cc1cc(NC(=O)CCCC(=O)NCc2cccs2)no1 | 3.4 | 29.1 µM [falling, single point] | –
O=C(NC1CCCC1)C(NS(=O)(=O)c1ccc(Br)s1)c1ccccc1 (stereo not drawn) | 3.21 | 4.11 µM [rising, full curve, poor fit] | 4.11 µM [rising, single point]
CCOC(=O)C1(Cc2ccccc2C)CCCN(C(=O)c2ccc(OC)o2)C1 (stereo not drawn) | -34.7 | 0.58 µM [rising, single point] | 16.4 µM [falling, single point]
CCn1c(CSc2nnc(-c3cccnc3)n2-c2ccccc2C)nc2cc(C(=O)O)ccc21 | – | – | 3.66 µM [falling, partial curve]
COc1ccccc1N1CCN(S(=O)(=O)c2ccc(Cl)s2)CC1 | 2.64 | – | –
CCCCc1cc2ccccc2c(OCCN(C)C)n1 | 39.5 | – | –
O=C(NCC(c1ccco1)N1CCCCC1)c1cccc(S(=O)(=O)Nc2ccccc2Cl)c1 (stereo not drawn) | 14.8 | 29.1 µM [rising, single point] | –
Cc1ccc(OCC(=O)N/N=C2\CC(=O)CC(C)(C)C2)c(Br)c1 | -2.55 | 23.1 µM [rising, single point] | –
N=C1C(=O)OCC1c1ccccc1NC(=O)c1ccccc1 (stereo not drawn) | – | 1.03 µM [falling, full curve] | 1.16 µM [rising, full curve]
Cc1nn(CC(=O)O)c2ccccc12 | 4.67 | – | –
COc1cccc(N/C=C/C(=O)c2ccc(OC)c(OC)c2)c1 | -33.3 | 29.1 µM [falling, single point] | –

Compound | cell number change [%] | AC50 [1] | AC50 [2]
Nn1c(SCc2ccccn2)nncc1=O | -4.07 | – | –
CC(C)C[C@@]12C(=O)N(c3cccc(F)c3)C(=O)N1[C@H](c1ccc(Cl)cc1)[C@@H]1C(=O)N(C3CCCCC3)C(=O)[C@@H]12 | 4.16 | 0.58 µM [falling, single point] | 3.66 µM [falling, single point]
Nc1nnc2c(n1)CCCC2 | 18.6 | 1.03 µM [falling, full curve] | –
O=C(NCCNC(=O)c1cc(Cl)ccc1Cl)c1ccco1 | 1.67 | – | –
Cc1noc(C)c1CSc1ncnc2sc3c(c12)CCC3 | 16.2 | 0.13 µM [rising, full curve, poor fit] | –
CCN(N)C(=S)Nc1ccc(F)cc1 | 24.3 | – | 0.116 µM [rising, full curve, poor fit]
COc1cc(C(=O)N(C)CCOc2ccc(C)cc2)ccc1OC1CCN(C(C)=O)CC1 | -16.8 | – | –
CCN(CC)S(=O)(=O)c1cccc(-c2n[nH]c(=S)n2Cc2ccccc2)c1 | 12.7 | – | –
Cc1cc(C)nc(NC(=O)c2c(C(=O)O)noc2C)n1 | 10.7 | – | 0.366 µM [falling, full curve]
CCn1c(Cc2ccc(OC)cc2)nnc1SCC(=O)N1CCN(c2ccccc2)CC1 | 40.6 | – | 9.2 µM [rising, partial curve]
O=C(CCc1nnc(CCC2CCCCC2)o1)NCc1ccon1 | -16.7 | – | –
Cc1cccc(-n2c(O)c(C=Nc3ccc4c(c3)OCO4)c3ccccc3c2=O)n1 | -0.705 | – | –
COc1cc(/C=C(\C#N)c2nn(CCO)c(N)c2C#N)cc(OC)c1OC | 11.4 | 0.184 µM [rising, full curve] | –
CCOc1ccccc1NC(=O)c1ccc2c(c1)C(=O)N(C(C)(C)C)C2=O | 9.49 | – | –
Cc1cc(C)n(CC(=O)c2ccc(Cl)cc2)n1 | 1.9 | 2.59 µM [rising, full curve, poor fit] | –
O=C(CCS(=O)(=O)c1cccs1)Nc1ccc(C(=O)NCc2ccc(F)cc2)cc1 | – | 0.13 µM [falling, full curve, poor fit] | –
COc1ccc(CCNC(=O)CN(c2ccc(OC)cc2)S(C)(=O)=O)cc1 | 24.8 | – | –
C/C(=C\C(=O)c1ccc(C)o1)Nc1ccc2c(c1)OCO2 | 1.03 | 0.58 µM [rising, partial curve] | –
Brc1ccc(C2Nc3cccc4cccc(c34)N2)o1 | 3.13 | 0.092 µM [rising, full curve, poor fit] | –
CC(C)(C)c1ccc(OCCn2nc(C(=O)O)c3ccccc3c2=O)cc1 | -2.63 | – | –
Cc1cc(=O)oc2cc(NC(=O)C(CCCN=C(N)N)NC(=O)OCc3ccccc3)ccc12 (stereo not drawn) | – | 0.517 µM [rising, full curve, poor fit] | –

Gathered by group: the compounds so far containing bromine (five)
Compound | cell number change [%] | AC50 [1] | AC50 [2]
Cc1cc(NC(=O)c2cccc(COc3ccc(Br)cc3)c2)no1 | -0.112 | – | –
O=C(COc1ccc(Br)cc1Cl)NC1CCN(Cc2ccccc2)CC1 | – | 29.1 µM [rising, single point] | –
O=C(NC1CCCC1)C(NS(=O)(=O)c1ccc(Br)s1)c1ccccc1 (stereo not drawn) | 3.21 | 4.11 µM [rising, full curve, poor fit] | 4.11 µM [rising, single point]
Cc1ccc(OCC(=O)N/N=C2\CC(=O)CC(C)(C)C2)c(Br)c1 | -2.55 | 23.1 µM [rising, single point] | –
Brc1ccc(C2Nc3cccc4cccc(c34)N2)o1 | 3.13 | 0.092 µM [rising, full curve, poor fit] | –
